# According to article PMC11991697:
# Sequences of proteins named here, by UniProt entry; tags and fusion partners are left off. A change or cut given only in a name is not applied to a line headed by its entry.
# UniProt P03372: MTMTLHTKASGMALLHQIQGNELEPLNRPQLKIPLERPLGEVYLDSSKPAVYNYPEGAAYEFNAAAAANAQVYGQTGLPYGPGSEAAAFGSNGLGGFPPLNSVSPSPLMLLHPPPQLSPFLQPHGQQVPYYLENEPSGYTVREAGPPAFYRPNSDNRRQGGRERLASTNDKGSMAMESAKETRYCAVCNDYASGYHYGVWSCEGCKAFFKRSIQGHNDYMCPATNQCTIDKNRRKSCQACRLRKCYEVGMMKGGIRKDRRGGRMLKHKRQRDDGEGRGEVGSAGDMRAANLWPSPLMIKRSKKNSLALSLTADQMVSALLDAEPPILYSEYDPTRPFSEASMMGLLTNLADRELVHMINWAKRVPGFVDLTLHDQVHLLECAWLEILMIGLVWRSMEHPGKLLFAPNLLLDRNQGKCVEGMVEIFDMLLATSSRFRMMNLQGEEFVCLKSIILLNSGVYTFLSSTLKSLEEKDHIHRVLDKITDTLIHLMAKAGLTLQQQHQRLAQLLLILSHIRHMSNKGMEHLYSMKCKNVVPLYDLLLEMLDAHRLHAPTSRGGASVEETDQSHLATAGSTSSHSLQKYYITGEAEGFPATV
# UniProt Q05086: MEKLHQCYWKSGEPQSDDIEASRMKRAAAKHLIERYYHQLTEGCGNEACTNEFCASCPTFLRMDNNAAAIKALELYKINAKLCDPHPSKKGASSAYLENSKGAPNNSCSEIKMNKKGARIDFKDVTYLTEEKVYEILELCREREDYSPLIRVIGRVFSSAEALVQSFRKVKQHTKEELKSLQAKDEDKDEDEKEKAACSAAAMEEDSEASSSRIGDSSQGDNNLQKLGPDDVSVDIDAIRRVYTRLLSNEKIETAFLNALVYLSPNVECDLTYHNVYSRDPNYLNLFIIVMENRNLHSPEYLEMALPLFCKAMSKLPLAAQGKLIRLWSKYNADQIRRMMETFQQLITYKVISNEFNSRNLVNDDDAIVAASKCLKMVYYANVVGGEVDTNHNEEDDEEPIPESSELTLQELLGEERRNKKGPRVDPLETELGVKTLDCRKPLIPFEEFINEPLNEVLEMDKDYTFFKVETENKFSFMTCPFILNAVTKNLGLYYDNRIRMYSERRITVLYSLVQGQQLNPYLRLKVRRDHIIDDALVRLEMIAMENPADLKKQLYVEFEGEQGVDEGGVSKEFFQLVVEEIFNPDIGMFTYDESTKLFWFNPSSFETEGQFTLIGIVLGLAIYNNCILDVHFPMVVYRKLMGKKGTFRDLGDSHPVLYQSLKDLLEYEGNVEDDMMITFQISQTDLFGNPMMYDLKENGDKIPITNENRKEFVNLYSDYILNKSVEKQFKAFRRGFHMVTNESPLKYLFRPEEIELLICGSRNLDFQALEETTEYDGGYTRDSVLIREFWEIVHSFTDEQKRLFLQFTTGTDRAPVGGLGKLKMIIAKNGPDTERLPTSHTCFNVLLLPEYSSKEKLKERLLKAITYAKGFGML
# Results are given in words; binding and its absence hold for the method and conditions named. In cells and extracts the contact can be indirect. Some results given as binding are weak or reduced against the parent protein; the word gives no strength. For some of these results: Sequences can lack the tags named with a protein.
# T1: Flag-FRMD8 (human) (UniProt Q9BZ67)
# T1 sequence: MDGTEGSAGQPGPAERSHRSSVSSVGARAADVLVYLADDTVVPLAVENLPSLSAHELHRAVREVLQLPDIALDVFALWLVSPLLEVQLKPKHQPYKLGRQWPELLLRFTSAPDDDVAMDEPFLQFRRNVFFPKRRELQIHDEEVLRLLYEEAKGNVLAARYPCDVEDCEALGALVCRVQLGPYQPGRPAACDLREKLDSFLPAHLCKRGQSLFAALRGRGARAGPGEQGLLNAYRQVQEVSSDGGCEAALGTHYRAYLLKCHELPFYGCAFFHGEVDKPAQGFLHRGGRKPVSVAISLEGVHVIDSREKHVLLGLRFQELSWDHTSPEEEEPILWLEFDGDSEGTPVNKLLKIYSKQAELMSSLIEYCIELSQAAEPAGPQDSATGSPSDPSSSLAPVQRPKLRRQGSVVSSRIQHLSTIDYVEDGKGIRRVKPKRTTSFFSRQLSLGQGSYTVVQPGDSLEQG
# T2: GST-FRMD8 (human) (UniProt Q9BZ67)
# T2 sequence: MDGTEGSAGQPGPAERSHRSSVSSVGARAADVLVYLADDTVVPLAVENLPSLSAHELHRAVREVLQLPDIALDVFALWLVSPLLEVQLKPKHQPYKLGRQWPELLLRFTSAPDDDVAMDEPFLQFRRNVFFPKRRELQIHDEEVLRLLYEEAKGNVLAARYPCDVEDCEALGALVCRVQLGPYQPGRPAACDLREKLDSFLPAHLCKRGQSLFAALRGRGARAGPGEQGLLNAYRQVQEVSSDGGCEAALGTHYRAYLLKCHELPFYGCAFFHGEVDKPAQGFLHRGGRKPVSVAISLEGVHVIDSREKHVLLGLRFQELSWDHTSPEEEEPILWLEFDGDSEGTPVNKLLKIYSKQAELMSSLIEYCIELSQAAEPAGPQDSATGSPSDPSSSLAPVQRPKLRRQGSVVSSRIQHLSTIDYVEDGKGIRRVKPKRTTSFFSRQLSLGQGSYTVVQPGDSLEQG
# B1: endogenous FRMD8 (protein, UniProt Q9BZ67 1-464)
# chain: MDGTEGSAGQPGPAERSHRSSVSSVGARAADVLVYLADDTVVPLAVENLPSLSAHELHRAVREVLQLPDIALDVFALWLVSPLLEVQLKPKHQPYKLGRQWPELLLRFTSAPDDDVAMDEPFLQFRRNVFFPKRRELQIHDEEVLRLLYEEAKGNVLAARYPCDVEDCEALGALVCRVQLGPYQPGRPAACDLREKLDSFLPAHLCKRGQSLFAALRGRGARAGPGEQGLLNAYRQVQEVSSDGGCEAALGTHYRAYLLKCHELPFYGCAFFHGEVDKPAQGFLHRGGRKPVSVAISLEGVHVIDSREKHVLLGLRFQELSWDHTSPEEEEPILWLEFDGDSEGTPVNKLLKIYSKQAELMSSLIEYCIELSQAAEPAGPQDSATGSPSDPSSSLAPVQRPKLRRQGSVVSSRIQHLSTIDYVEDGKGIRRVKPKRTTSFFSRQLSLGQGSYTVVQPGDSLEQG
# How the values were obtained:
# Flag-FRMD8 (human) [1] = target: T1, Flag-FRMD8 (human); experiment: co-IP; lysates of MCF7 and T47D cells transfected with Flag or Flag-FRMD8, anti-Flag immunoprecipitation, immunoblot for ERα and Flag; RIPA buffer washes
# GST-FRMD8 (human) = target: T2, GST-FRMD8 (human); experiment: pull-down; purified GST or GST-FRMD8 anchored on Glutathione Sepharose 4B beads, incubated with whole-cell lysate of HEK293T cells transfected with Flag-ERα, 4°C over 4 h, PBS washes, western blot; only the target purified
# Flag-ERα (human) = Flag-ERα (human) (UniProt P03372); experiment: co-IP; HEK293T and T47D cells co-transfected with Flag-ERα, HA-Ub and control or FRMD8 siRNA, MG132 (25 μM) for 6 h; whole-cell lysates immunoprecipitated with anti-Flag, immunoblot
# Flag-FRMD8 (human) [2] = target: T1, Flag-FRMD8 (human); experiment: co-IP; lysates of HEK293T cells transfected with Flag, Flag-FRMD8 or Flag-UBE3A, anti-Flag immunoprecipitation, immunoblot
# Flag-UBE3A = Flag-UBE3A (UniProt Q05086); experiment: as above
# [3] = target: endogenous ERα (human (endogenous in MCF7 and T47D)) (UniProt P03372); experiment: co-IP; endogenous proteins; MCF7 lysates immunoprecipitated with IgG or anti-ERα, immunoblot for FRMD8 and ERα
molecule,measurement,setting,value
endogenous ERα (from UniProt P03372 1-595) (receptor),binding,Flag-FRMD8 (human) [1],binds
Flag-ERα (from UniProt P03372 1-595) (receptor),binding,GST-FRMD8 (human),binds
endogenous UBE3A (from UniProt Q05086 1-875) (enzyme),binding,Flag-ERα (human),binds
same,binding,Flag-FRMD8 (human) [2],binds
B1,binding,Flag-ERα (human),binds
same,binding,Flag-UBE3A,binds
same,binding,[3],binds
